Drawing on paper PMC5432285, this text covers binding for 1 substance.

Sequences of proteins named here, by UniProt entry; tags and fusion partners are left off.
UniProt O95931: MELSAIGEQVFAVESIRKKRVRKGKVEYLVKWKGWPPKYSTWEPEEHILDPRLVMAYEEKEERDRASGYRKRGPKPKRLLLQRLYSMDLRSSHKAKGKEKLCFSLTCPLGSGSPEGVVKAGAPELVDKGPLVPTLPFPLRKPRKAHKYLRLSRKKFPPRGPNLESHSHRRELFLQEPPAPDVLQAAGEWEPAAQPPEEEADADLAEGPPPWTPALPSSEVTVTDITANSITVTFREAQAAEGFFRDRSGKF
UniProt Q92769: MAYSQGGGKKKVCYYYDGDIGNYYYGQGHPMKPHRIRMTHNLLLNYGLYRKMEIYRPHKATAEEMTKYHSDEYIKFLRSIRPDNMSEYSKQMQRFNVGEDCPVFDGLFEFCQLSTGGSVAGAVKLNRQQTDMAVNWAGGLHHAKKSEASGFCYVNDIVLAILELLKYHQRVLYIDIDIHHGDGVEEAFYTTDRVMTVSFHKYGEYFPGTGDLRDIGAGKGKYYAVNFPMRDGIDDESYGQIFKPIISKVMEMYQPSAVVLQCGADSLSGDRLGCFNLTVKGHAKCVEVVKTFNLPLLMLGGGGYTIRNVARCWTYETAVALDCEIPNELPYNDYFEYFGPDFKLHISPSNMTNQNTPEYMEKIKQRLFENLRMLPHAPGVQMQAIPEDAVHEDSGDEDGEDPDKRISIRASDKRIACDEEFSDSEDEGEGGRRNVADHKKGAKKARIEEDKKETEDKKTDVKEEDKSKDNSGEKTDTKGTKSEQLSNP

This test has as its target Chromobox homolog 7 (human (endogenous in U251, U87, LN229)) (UniProt O95931). Nature of the test: co-IP; lysates of U251, U87 and LN229 cells; IP with anti-CBX7 antibody (or nonspecific IgG) and blot with anti-HDAC2, and conversely IP with anti-HDAC2 and blot with anti-CBX7; overnight at 4°C, protein A/G plus-agarose.

Results are given in words; binding and its absence hold for the method and conditions named. Binding seen in cells or lysates may run through a third protein. Some results given as binding are weak or reduced against the parent protein; the word gives no strength.

“histone deacetylase 2 (from UniProt Q92769 1-488)”: the binding result is reported as “binds”.
